# Reference: PubChem BioAssay AID1508600 (Functional Genomics Laboratory (NCATS/FGL), 2020)
# Out of some 53,000 sequences screened, about 3,700 (7%) were called active.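 How the source made its calls: active means gene knockdowns whose robust z-score for IL-1 alpha signal is at least 2 or at most -2, so actives lie on both sides; inactive means the rest.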 The list shows a part of the results.
# Assay: Components of the Cytosolic LPS Sensing Pathway: Gene Identification via Genome-wide siRNA Screen;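 further: robust z of the log signal after scaling to non-targeting control siRNA wells of the plate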
# Details: RAW264.7 macrophages, IL-1a HTRF, actives lie on both sides, screened at 100 nM (by protocol), cells primed 5 h with Pam3CSK4 first
# How it was run: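 Three distinct siRNAs per gene were tested singly at 100 nM in RAW264.7 macrophages. Following Pam3CSK4 priming and 24 hour LipidA transfection, IL-1a secretion was read by HTRF.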
row,Sequence,z-score
1,GGGCUAUCGCUGCAUUAUCTT against Cbs,inactive: -1.01
2,GGGUCUCUUACAAAGUCCATT against Msrb2,inactive: -0.254
3,GGAAUAUUGUCUUGAAUGATT against Fasl,inactive: 0.615
4,GGCUGGAUAUAUGGUGUACTT against Prodh2,inactive: 1.74
5,CCAUCGAGUAAAGUUUGAATT against Grxcr1,inactive: -0.0846
6,GGAUUCUUCUUCUCAGACGTT against Ciz1,inactive: 0.701
7,GCAAGCAUGUGAGAGGGCUTT against Anapc10,inactive: 0.98
8,GCAAAUUCACCGGAAAAUGTT against Sorbs3,inactive: 1.04
9,GGUCAAGCAGCUGACCCAATT against Elfn1,inactive: -0.643
10,CCAAUGGUUUAAGCCUAGCTT against Stra6l,inactive: -0.553
11,GGUUUUGGCUCGAAGGAAATT against Tead2,inactive: -0.31
12,GGAUUUUGUUGGAACAGAATT against Gna15,inactive: -0.236
13,GGACAUUCGAGGAGAGACCTT against Rdh13,inactive: 0.106
14,GCAUUUGGGCAACGAGAUGTT against Nr5a1,inactive: -1.3
15,GCUAGUCAUGCUACGGAAUTT against Aftph,inactive: 0.601
16,CCUGGAUUUUUCCAAACAATT against Ost4,inactive: -1.32
17,CCAACUCUAAUAAUAACAGTT against Slc22a26,active: 3.31
18,GGCGCAGCAAAUUCAAUUUTT against Shmt2,inactive: 0.0628
19,GGCUGUGAUCAAAGAACAGTT against Bbs4,inactive: 0.507
20,GGUAAAUUGUCAGAGUUUUTT against Phka1,inactive: 0.83
21,CCCGUUCAAGCAAUUACAUTT against G2e3,inactive: -1.05
22,CGGUUAGAUGAGCUUGAGATT against Smad2,inactive: -0.725
23,CGUUACCCUGGAUUCCGAUTT against Tex47,inactive: 0.731
24,CCAUACGUUUUUCAGAAUGTT against Epb41l4a,inactive: 0.0893
25,GGGUAAAACAGAGGAAGAATT against Snrnp27,inactive: 1.04
26,GGGAGAGUAAUGUGGACAUTT against Slc37a2,active: 3.86
27,GGAACGAUUGGUUUUUUUUTT against Ms4a6c,inactive: 0.0512
28,GCUACAAGAUGUGGUCAACTT against Cdc42ep1,inactive: 1.86
29,GGUUAUCGCAUUUGGUGGUTT against Olfr1511,inactive: 0.104
30,GGCAUACUUGUACCGCUAUTT against Mmp9,inactive: -0.35

# 2 entries from above, with tabs:
row	Sequence	z-score
9	GGUCAAGCAGCUGACCCAATT against Elfn1	inactive: -0.643
10	CCAAUGGUUUAAGCCUAGCTT against Stra6l	inactive: -0.553
